From PubChem BioAssay AID2685 (National Center for Advancing Translational Sciences (NCATS), 2010)
Among all 320,000 compounds or so, about 2,100 (0.66%) were called active. The shares of active, inactive and inconclusive entries below differ from those in the screen. Calls come from the whole dose curve; as a rule, active = well fitted inhibition curve with a large enough effect in the signal ratio, with a control signal flat (not every such curve was filed as active); inconclusive = small, poorly fitted or top-dose-only effect, or effect the other way, or a change in a side signal; inactive = flat fitted curve, though single readings scatter; the % refers to the signal ratio. Where the call is inconclusive, the potency comes from a doubtful curve fit.

assay: qHTS Assay for Lipid Storage Modulators in Drosophila S3 Cells; settings: BODIPY lipid droplet fluorescence, 18-24 h, cells fed with added oleic acid; lipid storage change, negative = inhibition: at 46.1 µM (top of the series) unless noted
Summary of the method: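 Drosophila S3 cells loaded with oleic acid (400 uM, as added) and compounds at several concentrations; lipid droplets imaged by 488-nm laser-scanning cytometry, 500–530 nm intensity and object ratio to cell channel. Percent activity normalized to 20 uM Triacsin C.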
% is set by controls: 0 for no effect and ±100 for the full control effect; potency is the fitted concentration of half-maximal effect.

Row | Structure (SMILES) | lipid storage change, negative = inhibition | outcome | Potency
1 | O=C(CN1C(=O)NC2(CCCc3ccccc32)C1=O)Nc1ccccc1OC(F)F (centres undefined) | inconclusive: -8.28% | – | –
2 | Cc1ccc(-n2ncc(C(=O)N3CCN(C(=O)c4ccco4)CC3)c2-n2cccc2)cc1 | – | inactive [at 46.1 µM] | –
3 | NC(=O)N1CCc2ccccc21 | – | – | inconclusive: 32.6 µM [falling, single point]
4 | CC(C)C[C@H](NC(=O)N1CCn2c1nc1ccccc12)C(=O)NCC1CCCO1 (some centres undefined) | inconclusive: -40.1% | – | –
5 | CCC(C)[C@@H](C(=O)Nc1ccc2c(c1)OCO2)N1Cc2ccccc2C1=O (some centres undefined) | inconclusive: 10.9% [at 9.22 µM] | – | –
6 | CCOc1ccc(-c2nnc(SCC(=O)N3CCOCC3)o2)cc1 | inconclusive: 19.1% | – | –
7 | CC(=O)Nc1cccc(NC(=O)CS(=O)(=O)c2cn(CC(=O)N3CCCC3)c3ccccc23)c1 | – | – | inconclusive: 29.1 µM [activator, partial curve, poor fit]
8 | CSc1ccccc1C(=O)N1CCCCC1 | inconclusive: -27.8% | – | –
9 | Cc1cccc(C)c1NS(=O)(=O)c1cc2c3c(c1)CCN3C(=O)CC2 | inconclusive: 40.8% [activator] [at 0.0737 µM] | – | –
10 | COc1ccc(CCNC(=O)COC(=O)CNS(=O)(=O)c2ccc(SC)c([N+](=O)[O-])c2)cc1 | inconclusive: -12.2% | – | –
11 | Cc1ccccc1-n1c(-c2csc3ccccc23)n[nH]c1=S | inconclusive: 5.35% | – | –
12 | COc1cc2nc(=S)n3[nH]c(COc4ccccc4C)nc3c2cc1OC | inconclusive: 6.48% | – | –
13 | O=C(COC(=O)CCN1C(=O)C2CC=CCC2C1=O)NCCc1ccccc1 (centres undefined) | – | – | inconclusive: 6.51 µM [activator, partial curve]
14 | CC(=O)Nc1ccc(C(=O)N/N=C(\C)CC(=O)Nc2ccc(OCc3ccccc3)cc2)cc1 | inconclusive: 55% | – | –
15 | CN(C(=O)COC(=O)CSc1ccc(C(N)=O)cc1[N+](=O)[O-])C1CCS(=O)(=O)C1 (centres undefined) | inconclusive | – | –
16 | COCCNc1nnc(SCC(=O)Nc2cc(C)on2)s1 | inconclusive: -0.479% | – | –
17 | COc1ccc(F)cc1CN1CCN(CC(=O)N2CCc3ccccc32)CC1 | inconclusive: -12.8% | – | –
18 | CCCCCOc1ccc(C(=O)OC(C)C(=O)NCc2ccco2)cc1 (centres undefined) | inconclusive: -100% | – | –
19 | CC12CCC(=O)N1C(C(=O)Nc1nc3ccc(F)cc3s1)CS2 (centres undefined) | inconclusive: 1.71% | – | –
20 | O=C(NC1CCCc2ccccc21)c1cncc(Br)c1 (centres undefined) | inconclusive: -10.6% | – | –
21 | Cc1ccc(S(=O)(=O)N(C)C)cc1NC(=O)C1CCC1 | inconclusive: -33.5% | – | –
22 | Cc1ccsc1/C=N/n1c(=S)[nH]nc(C)c1=O | inconclusive: 8.32% | – | –
23 | O=C(CCCNC(=O)c1ccc(Cl)cc1)Nc1ccccc1F | – | – | inconclusive: 6.51 µM [activator, partial curve, poor fit]
24 | COc1ccc(/C=N/N=C(\N)c2nonc2N)cc1OC | inconclusive: 4.38% | – | –
25 | O=C(Nc1ccc(Br)cc1)C1CC(O)CN1C(=O)OCc1ccccc1 (centres undefined) | inconclusive: 161% | – | –
26 | Cc1ccc(C(=O)CN2C(=O)NC3(CCOc4ccccc43)C2=O)s1 (centres undefined) | inconclusive: 0.356% | – | –
27 | O=C1CCN(C(=S)NCCc2ccccc2)CC1 | inconclusive: 8.85% | – | –

Row | Structure (SMILES) | lipid storage change, negative = inhibition | outcome | Potency
28 | O=C(COC(=O)C1CC1)NCc1ccccc1Cl | – | – | inconclusive: 0.0052 µM [falling, full curve, poor fit]
29 | CCN(CC(=O)Nc1ccc(NC(C)=O)cc1)C(=O)CSc1ncnc2sc(C)c(C)c12 | inactive: 4.57% | – | –
30 | CCOc1ccc(C(=O)Nc2ccc3c(c2)OCO3)cc1OCC | – | – | inconclusive: 0.058 µM [activator, full curve, poor fit]
31 | O=C(C1=C[C@H](c2ccc(C(F)(F)F)cc2)C[C@H](OCCCCO)O1)N1CCN(Cc2ccc3c(c2)OCO3)CC1 | inconclusive: -50.6% | – | –
32 | CCOC(=O)c1cnc2c(ccc3ccccc32)c1NCCN(C)C | inconclusive: 21.1% | – | –
33 | CCN1C(=O)/C(=C\N(C(C)=O)c2ccccc2)OC1=S | – | – | inconclusive: 11.6 µM [falling, partial curve]
34 | CCOC(=O)c1c(C)[nH]c(C(=O)CSc2nc3ccccc3o2)c1C | – | – | inconclusive: 1.84 µM [activator, partial curve, poor fit]
35 | Cn1c(=O)[nH]c(=O)c2c1ncn2CCCc1ccccc1 | inconclusive: -38.3% | – | –
36 | CCOc1ccccc1CN1CCN(C2CCOCC2)CC1CCO (centres undefined) | inconclusive: 36.1% | – | –
37 | COc1cc(C2=NOC(C(=O)NCc3ccccn3)C2)cc(OC)c1OC (centres undefined) | inconclusive: 89.8% | – | –
38 | C#CCN(CC=C)C(=O)c1cccc(OC2CCN(S(C)(=O)=O)CC2)c1 | – | – | inconclusive: 29.1 µM [activator, single point]
39 | O=C(Nn1c(Cc2cccs2)nc2ccccc2c1=O)c1ccc(F)c(F)c1 | inconclusive: 10.2% | – | –
40 | N#Cc1cccc(NC(=O)c2nc(-c3ccccc3)n(-c3ccccc3)n2)c1 | inconclusive: 13.1% | – | –
41 | COc1ccc(Br)cc1/C=N/Nc1ccccn1 | inconclusive: 30.7% | – | –
42 | O=C1CCN(Cc2ccccc2)S(=O)(=O)c2c(F)cc(F)cc21 | inconclusive: 39.4% | – | –
43 | CCCN1CCN(CCCNC(=O)c2cc3c(s2)-c2c(C)cccc2OC3)CC1 | – | – | inconclusive: 6.51 µM [activator, partial curve]
44 | O=[N+]([O-])c1ccc(/C=C/C2=NN(c3ccccc3)C(c3ccco3)C2)o1 (centres undefined) | inconclusive: 6.31% | – | –
45 | COc1cc(C(=O)NCc2nc(C)cs2)ccc1OC1CCN(C(C)=O)CC1 | inconclusive: -42.8% | – | –
46 | CC(C)N1CCc2c(sc(NC(=O)CCS(=O)(=O)c3ccccc3)c2C(N)=O)C1 | inconclusive: 11.8% | – | –
47 | O=Cc1ccc(O)cc1O | inconclusive: 45.8% | – | –
48 | CCCn1c(-c2cccc(F)c2)nc2c1c(=O)[nH]c(=O)n2Cc1ccccc1 | – | inactive [at 46.1 µM] | –
49 | Cc1ccc(C)c(OCCCC(C)(C)C(=O)O)c1 | inconclusive: 0.246% | – | –
50 | O=C(c1ccc(Br)o1)N1N=C(c2ccc(Cl)cc2)CC1c1ccco1 (centres undefined) | – | – | inconclusive: 2.06 µM [rising, full curve]
51 | O=C(CCc1nc2ccccc2c(=O)[nH]1)NCc1ccco1 | inconclusive: -3.54% | – | –
52 | CCc1ccc(N2CC(C(=O)Nc3nc4ccc(S(C)(=O)=O)cc4s3)CC2=O)cc1 (centres undefined) | – | – | active: 2.31 µM
53 | COc1ccc(C2CC(=O)c3cnc(NC(=O)c4ccccc4)nc3C2)c(OC)c1 (centres undefined) | inconclusive: 18.9% | – | –
54 | Cc1ccc(S(=O)(=O)CCC(=O)c2ccc(F)cc2)cc1 | inconclusive: -1.53% | – | –

Row | Structure (SMILES) | lipid storage change, negative = inhibition | outcome | Potency
55 | C=C(C)C1CC=C(C)/C(=N/NC(=O)c2ccccc2[N+](=O)[O-])C1 (centres undefined) | inconclusive: -9.25% | – | –
56 | Oc1ccccc1-c1nc(NC2CCCC2)c2ccccc2n1 | inconclusive: 11.8% | – | –
57 | Nc1c(C(=O)NC2CCCC2)c2nc3ccccc3nc2n1N | inconclusive: 3.44% | – | –
58 | CCOc1ccc(NC(=S)N2CCN(S(C)(=O)=O)CC2)cc1 | inconclusive: 43.3% | – | –
59 | COc1ccccc1NS(=O)(=O)c1ccc(O)c(C(=O)OCC(=O)N2c3ccccc3CC2C)c1 (centres undefined) | inconclusive: 35.8% | – | –
60 | Cc1ccc(Nc2nc(-c3ccc(O)c(O)c3)cs2)nc1 | inconclusive: -15.1% | – | –
61 | O=C1C(=O)N(c2ccccn2)C(c2ccc(F)cc2)/C1=C(/O)c1ccc(Br)cc1 (centres undefined) | inconclusive: -22% | – | –
62 | O=C(CCCN1C(=O)C(c2ccccc2)Oc2cccnc21)NCc1ccc(F)cc1 (centres undefined) | inconclusive: -149% | – | –
63 | Cc1ccc(S(=O)(=O)N2CCOCC2)cc1C(=O)OC(C)C(=O)NC1CCCC1 (centres undefined) | inconclusive: 14.4% | – | –
64 | CCN(CC(=O)Nc1cccc(S(=O)(=O)N(C)c2ccccc2)c1)Cc1ccccc1 | inconclusive: 15.7% | – | –
65 | COc1ccc(N(CC(=O)N2CCN(c3cccc(Cl)c3)CC2)S(=O)(=O)c2c(C)noc2C)cc1 | – | – | inconclusive: 20.6 µM [activator, single point]
66 | O=C(COc1ccccc1)N1CCN(S(=O)(=O)c2cccs2)CC1 | inconclusive: 11.9% | – | –
67 | COc1ccc(NC(=O)c2cccc(-c3ccc(O)cc3)c2)cn1 | – | – | inconclusive: 0.0046 µM [falling, full curve, poor fit]
68 | COc1ccc(S(=O)(=O)N[C@H](C(=O)N2CC[C@@]3(O)CCCC[C@H]3C2)c2ccccc2)cc1 | inconclusive: 6.79% | – | –
69 | Cc1ccc(CN(CC(=O)NCc2ccc3c(c2)OCO3)C(=O)c2csnn2)cc1 | – | – | inconclusive: 0.116 µM [activator, full curve, poor fit]
70 | COc1ccc(Br)cc1C(=O)Nc1cccc(C)c1 | – | – | inconclusive: 1.84 µM [rising, full curve, poor fit]
71 | Cc1csc(=O)n1CCC(=O)OCC(=O)Nc1ccc(F)c(F)c1F | inconclusive: -39.6% | – | –
72 | CCC(=O)Nc1ccc(F)c(Cl)c1 | inconclusive: -69% | – | –
73 | O=C(Cc1ccc(F)cc1)N/N=C/c1ccncc1 | inconclusive: 34.1% | – | –
74 | Cc1ccc(Cl)cc1NC(=S)N(CCN(C)C)Cc1cccs1 | – | – | inconclusive: 6.51 µM [rising, single point]
75 | CCN(CC)S(=O)(=O)c1ccc(N2CCCC2)c(C(=O)OCC(=O)/C(C#N)=C(\C)N)c1 | – | – | inconclusive: 1.64 µM [activator, partial curve, poor fit]
76 | COc1ccc(OCc2ccc(C(=O)NN)cc2)cc1 | – | – | inconclusive: 18.4 µM [activator, partial curve]
77 | C(=N\N1CCN(c2ccccn2)CC1)/c1cccc2ccccc12 | inconclusive: 18.1% | – | –
78 | O=C1CN(C(=S)Nc2ccc(OC(F)F)cc2)CCN1 | inconclusive: -11% | – | –
79 | COC(=O)C1=C(C)OC(N)=C(C#N)C1c1cc(C)sc1C (centres undefined) | – | – | inconclusive: 0.517 µM [activator, full curve, poor fit]

Grouped by structure, the entries above containing a cyano group (3)
Row | Structure (SMILES) | lipid storage change, negative = inhibition | outcome | Potency
40 | N#Cc1cccc(NC(=O)c2nc(-c3ccccc3)n(-c3ccccc3)n2)c1 | inconclusive: 13.1% | – | –
75 | CCN(CC)S(=O)(=O)c1ccc(N2CCCC2)c(C(=O)OCC(=O)/C(C#N)=C(\C)N)c1 | – | – | inconclusive: 1.64 µM [activator, partial curve, poor fit]
79 | COC(=O)C1=C(C)OC(N)=C(C#N)C1c1cc(C)sc1C (centres undefined) | – | – | inconclusive: 0.517 µM [activator, full curve, poor fit]
